Assay results: publication doi:10.1101/2024.08.27.609947
Results are given in words; binding and its absence hold for the method and conditions named. In cells and extracts the contact can be indirect. Some results given as binding are weak or reduced against the parent protein; the word gives no strength. Tags and fused reporters may be left off the sequences shown.

The chains behind the UniProt entries cited, without tags or fusion partners.
UniProt P20434: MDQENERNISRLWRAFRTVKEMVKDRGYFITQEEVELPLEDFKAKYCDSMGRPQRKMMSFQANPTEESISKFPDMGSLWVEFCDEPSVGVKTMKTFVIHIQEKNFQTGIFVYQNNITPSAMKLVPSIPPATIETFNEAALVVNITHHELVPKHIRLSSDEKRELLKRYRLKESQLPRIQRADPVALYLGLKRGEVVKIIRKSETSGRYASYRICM

T1: Rpc2 (Rpc128) with C-terminal TAP tag (S. cerevisiae (endogenous in strain YLy3)) (UniProt P22276)
T1 sequence: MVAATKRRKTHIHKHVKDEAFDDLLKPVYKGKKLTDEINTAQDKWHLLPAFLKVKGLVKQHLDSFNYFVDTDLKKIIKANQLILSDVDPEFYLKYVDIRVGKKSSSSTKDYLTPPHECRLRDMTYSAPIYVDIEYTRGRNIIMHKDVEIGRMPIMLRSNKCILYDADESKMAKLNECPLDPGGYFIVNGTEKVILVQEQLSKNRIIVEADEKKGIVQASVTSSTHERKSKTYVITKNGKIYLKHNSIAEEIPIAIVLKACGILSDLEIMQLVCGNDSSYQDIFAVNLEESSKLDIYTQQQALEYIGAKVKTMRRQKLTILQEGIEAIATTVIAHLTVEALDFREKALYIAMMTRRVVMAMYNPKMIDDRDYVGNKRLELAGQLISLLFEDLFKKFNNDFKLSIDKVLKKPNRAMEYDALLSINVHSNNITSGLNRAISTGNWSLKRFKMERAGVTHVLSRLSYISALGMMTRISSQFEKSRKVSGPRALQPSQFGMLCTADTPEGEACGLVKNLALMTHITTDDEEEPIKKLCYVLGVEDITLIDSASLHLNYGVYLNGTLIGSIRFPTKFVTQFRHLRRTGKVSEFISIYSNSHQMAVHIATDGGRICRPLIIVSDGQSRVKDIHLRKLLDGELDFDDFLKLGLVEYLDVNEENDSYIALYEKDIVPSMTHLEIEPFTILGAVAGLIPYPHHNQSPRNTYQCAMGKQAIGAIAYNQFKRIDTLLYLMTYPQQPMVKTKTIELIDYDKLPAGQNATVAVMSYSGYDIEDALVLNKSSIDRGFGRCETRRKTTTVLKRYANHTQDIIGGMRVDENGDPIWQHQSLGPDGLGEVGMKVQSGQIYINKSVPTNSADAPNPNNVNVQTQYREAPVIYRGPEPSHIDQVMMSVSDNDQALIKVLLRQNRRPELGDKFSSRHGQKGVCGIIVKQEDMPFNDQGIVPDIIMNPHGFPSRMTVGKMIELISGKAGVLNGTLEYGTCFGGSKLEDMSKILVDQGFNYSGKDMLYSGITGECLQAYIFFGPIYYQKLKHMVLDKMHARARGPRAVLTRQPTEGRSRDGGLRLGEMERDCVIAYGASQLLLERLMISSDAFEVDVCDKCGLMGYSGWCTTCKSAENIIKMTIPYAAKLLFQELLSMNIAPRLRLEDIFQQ

B1: Rpc82 (protein, UniProt P32349 1-654)
chain: MDELLGEALSAENQTGESTVESEKLVTPEDVMTISSLEQRTLNPDLFLYKELVKAHLGERAASVIGMLVALGRLSVRELVEKIDGMDVDSVKTTLVSLTQLRCVKYLQETAISGKKTTYYYYNEEGIHILLYSGLIIDEIITQMRVNDEEEHKQLVAEIVQNVISLGSLTVEDYLSSVTSDSMKYTISSLFVQLCEMGYLIQISKLHYTPIEDLWQFLYEKHYKNIPRNSPLSDLKKRSQAKMNAKTDFAKIINKPNELSQILTVDPKTSLRIVKPTVSLTINLDRFMKGRRSKQLINLAKTRVGSVTAQVYKIALRLTEQKSPKIRDPLTQTGLLQDLEEAKSFQDEAELVEEKTPGLTFNAIDLARHLPAELDLRGSLLSRKPSDNKKRSGSNAAASLPSKKLKTEDGFVIPALPAAVSKSLQESGDTQEEDEEEEDLDADTEDPHSASLINSHLKILASSNFPFLNETKPGVYYVPYSKLMPVLKSSVYEYVIASTLGPSAMRLSRCIRDNKLVSEKIINSTALMKEKDIRSTLASLIRYNSVEIQEVPRTADRSASRAVFLFRCKETHSYNFMRQNLEWNMANLLFKKEKLKQENSTLLKKANRDDVKGRENELLLPSELNQLKMVNERELNVFARLSRLLSLWEVFQMA
B2: Rpc1 (Rpc160) (protein, UniProt P04051 1-1460)
chain: MKEVVVSETPKRIKGLEFSALSAADIVAQSEVEVSTRDLFDLEKDRAPKANGALDPKMGVSSSSLECATCHGNLASCHGHFGHLKLALPVFHIGYFKATIQILQGICKNCSAILLSETDKRQFLHELRRPGVDNLRRMGILKKILDQCKKQRRCLHCGALNGVVKKAAAGAGSAALKIIHDTFRWVGKKSAPEKDIWVGEWKEVLAHNPELERYVKRCMDDLNPLKTLNLFKQIKSADCELLGIDATVPSGRPETYIWRYLPAPPVCIRPSVMMQDSPASNEDDLTVKLTEIVWTSSLIKAGLDKGISINNMMEHWDYLQLTVAMYINSDSVNPAMLPGSSNGGGKVKPIRGFCQRLKGKQGRFRGNLSGKRVDFSGRTVISPDPNLSIDEVAVPDRVAKVLTYPEKVTRYNRHKLQELIVNGPNVHPGANYLLKRNEDARRNLRYGDRMKLAKNLQIGDVVERHLEDGDVVLFNRQPSLHRLSILSHYAKIRPWRTFRLNECVCTPYNADFDGDEMNLHVPQTEEARAEAINLMGVKNNLLTPKSGEPIIAATQDFITGSYLISHKDSFYDRATLTQLLSMMSDGIEHFDIPPPAIMKPYYLWTGKQVFSLLIKPNHNSPVVINLDAKNKVFVPPKSKSLPNEMSQNDGFVIIRGSQILSGVMDKSVLGDGKKHSVFYTILRDYGPQEAANAMNRMAKLCARFLGNRGFSIGINDVTPADDLKQKKEELVEIAYHKCDELITLFNKGELETQPGCNEEQTLEAKIGGLLSKVREEVGDVCINELDNWNAPLIMATCGSKGSTLNVSQMVAVVGQQIISGNRVPDGFQDRSLPHFPKNSKTPQSKGFVRNSFFSGLSPPEFLFHAISGREGLVDTAVKTAETGYMSRRLMKSLEDLSCQYDNTVRTSANGIVQFTYGGDGLDPLEMEGNAQPVNFNRSWDHAYNITFNNQDKGLLPYAIMETANEILGPLEERLVRYDNSGCLVKREDLNKAEYVDQYDAERDFYHSLREYINGKATALANLRKSRGMLGLLEPPAKELQGIDPDETVPDNVKTSVSQLYRISEKSVRKFLEIALFKYRKARLEPGTAIGAIGAQSIGEPGTQMTLKTFHFAGVASMNVTLGVPRIKEIINASKVISTPIINAVLVNDNDERAARVVKGRVEKTLLSDVAFYVQDVYKDNLSFIQVRIDLGTIDKLQLELTIEDIAVAITRASKLKIQASDVNIIGKDRIAINVFPEGYKAKSISTSAKEPSENDVFYRMQQLRRALPDVVVKGLPDISRAVINIRDDGKRELLVEGYGLRDVMCTDGVIGSRTTTNHVLEVFSVLGIEAARYSIIREINYTMSNHGMSVDPRHIQLLGDVMTYKGEVLGITRFGLSKMRDSVLQLASFEKTTDHLFDAAFYMKKDAVEGVSECIILGQTMSIGTGSFKVVKGTNISEKDLVPKRCLFESLSNEAALKAN

Biological target: T1, Rpc2 (Rpc128) with C-terminal TAP tag (S. cerevisiae (endogenous in strain YLy3))
Assay: pull-down

binding, binds:
ABC27 (from UniProt P20434 1-215)
B1
B2
